Data as given in PubChem BioAssay AID1259254 (NCATS, 2017)
Test: 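Finding genes that stop cells copying their DNA twice in one cycle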 (primary screen). Cells: human HCT116 colorectal cancer cells. Reagent: single siRNA against human genes. Timing: 3 days. Detection: 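Imaged Hoechst DNA stain sorts each cell into a cycle phase by DNA amount; per plate, G2 fraction set to 0% for non-targeting and 100% for GMNN siRNA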. Scale: G2 robust z-score: higher = more G2 cells, more excess DNA replication. Hit rule: 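Active siRNAs have a G2 robust z of 5 or more median absolute deviations over the median, which in these data means about 38% or higher of GMNN control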.
The whole screen tested about 59,000 reagents; shown is an unselected part. About 1,550 of all reagents (2.6%) count as active. 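G2 share is only a proxy for re-replication; each gene was hit by three separate siRNAs, and active genes were retested.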 Unmarked entries are inactive. The numbers tell different reagents against one gene apart. Not all columns of the deposit are shown. The record does not give: the amount of reagent.

NRXN3 #1
- G2 robust z-score: 0.983

NRXN3 #2
- G2 robust z-score: 0.237

NRXN3 #3
- G2 robust z-score: -0.993

ST6GALNAC4 #1
- G2 robust z-score: 1.5

ST6GALNAC4 #2
- G2 robust z-score: 2.59

ST6GALNAC4 #3
- G2 robust z-score: -1.58

Single entries from the entries so far.
ST6GALNAC4 #1, G2 robust z-score = 1.5
Under “G2 robust z-score”, NRXN3 #3 shows -0.993

Continued:
GNA14 #1
- G2 robust z-score: 3.71

GNA14 #2
- G2 robust z-score: 0.597

GNA14 #3
- G2 robust z-score: 1.65

ZNF749 #1
- G2 robust z-score: -0.379

ZNF749 #2
- G2 robust z-score: -0.548

ZNF749 #3
- G2 robust z-score: -0.548
